PubChem BioAssay AID1259286 | Sanger Institute, 2017

Assay: 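Kinome knock-downs lethal on their own or synergistic with anchor drugs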 (primary screen)
Cells: NCI-H630 human colorectal cancer cells
Reagent: siRNA pool against human genes
Conditions: anchor drugs BYL719 at 1 µM, cetuximab at 5 µg/ml or trametinib at 10 nM, or DMSO vehicle alone; exposure time not given
Measurement: 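Viability relative to non-targeting pool wells, averaged over replicates, with robust z-score for knock-down alone and a synergy score for each anchor drug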
Direction: viability z-score, knock-down alone: higher = more viable cells, weaker knock-down effect; viability vs control, knock-down alone: higher = more viable cells; synergy score with trametinib: higher = stronger synergistic killing with trametinib; synergy score with BYL719: higher = stronger synergistic killing with BYL719; synergy score with cetuximab: higher = stronger synergistic killing with cetuximab
Rule for the call: 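a gene is called essential when its knock-down-alone viability robust z-score is below -3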
Calls: active = essential when knocked down alone; inactive = not essential alone
In all, the deposit lists 794 reagents; shown is an unselected part. 17 of all reagents (2.1%) were called active. 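Calls use knock-down alone only; synergy above 0.15 marked separately; viability seems capped at control level; exposure time not given.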 The record does not give: the amount of reagent, the time to read-out.

| gene knocked down | viability z-score, knock-down alone | viability vs control, knock-down alone (fraction of control) | synergy score with trametinib | synergy score with BYL719 | synergy score with cetuximab | Outcome |
| --- | --- | --- | --- | --- | --- | --- |
| NEK2 (NIMA related kinase 2) | 0.464 | 1 | -0.0211 | 0.0797 | 0.0661 | inactive |
| CSNK1G2 (casein kinase 1 gamma 2) | 0.464 | 1 | -0.0479 | -0.009 | 0.0302 | inactive |
| SGK3 (serum/glucocorticoid regulated kinase family member 3) | 0.464 | 1 | -0.0479 | -0.0373 | -0.0371 | inactive |
| MAPKAPK5 (MAPK activated protein kinase 5) | 0.464 | 1 | -0.0479 | 0.0468 | 0.0755 | inactive |
| MAP4K5 (mitogen-activated protein kinase kinase kinase kinase 5) | 0.464 | 1 | -0.0233 | 0.0399 | -0.0529 | inactive |
| TRIM27 (tripartite motif containing 27) | 0.464 | 1 | 0.0224 | -0.0814 | -0.0584 | inactive |
| BMAL1 (basic helix-loop-helix ARNT like 1) | -0.931 | 0.947 | 0.00517 | -0.0155 | 0.198 | inactive |
| TSKS (testis specific serine kinase substrate) | 0.464 | 1 | 0.0135 | -0.0814 | -0.121 | inactive |
| NTRK2 (neurotrophic receptor tyrosine kinase 2) | 0.464 | 1 | -0.0479 | 0.0115 | -0.00288 | inactive |
| CDK15 (cyclin dependent kinase 15) | 0.464 | 1 | 0.0224 | -0.0814 | -0.0305 | inactive |
| PIK3C2G | 0.464 | 1 | 0.0507 | 0.111 | 0.12 | inactive |
| PTK2 (protein tyrosine kinase 2) | 0.464 | 1 | -0.0479 | -0.0814 | -0.0476 | inactive |
| PBK (PDZ binding kinase) | 0.0963 | 0.986 | -0.0306 | -0.00234 | 0.133 | inactive |
| FBXW7 (F-box and WD repeat domain containing 7) | 0.464 | 1 | 0.0512 | -0.0814 | 0.0123 | inactive |
| NME7 (NME/NM23 family member 7) | -2.62 | 0.883 | -0.14 | -0.108 | -0.0642 | inactive |
| TCF7L2 (transcription factor 7 like 2) | 0.464 | 1 | 0.0377 | -0.0814 | -0.00538 | inactive |
| TWF1 (twinfilin actin binding protein 1) | 0.464 | 1 | -0.0356 | -0.0814 | -0.121 | inactive |
| FES (FES proto-oncogene, tyrosine kinase) | -0.405 | 0.967 | -0.0791 | 0.0082 | 0 | inactive |
| CDK5 (cyclin dependent kinase 5) | 0.249 | 0.992 | -0.0556 | -0.0889 | -0.0246 | inactive |
| CDKL3 (cyclin dependent kinase like 3) | 0.464 | 1 | -0.0322 | -0.0316 | -0.0672 | inactive |
| ATP23 | 0.464 | 1 | -0.0334 | -0.0174 | 0.116 | inactive |
| CDKL5 (cyclin dependent kinase like 5) | 0.464 | 1 | -0.0479 | -0.0697 | 0.0466 | inactive |
| ZC3H11A (zinc finger CCCH-type containing 11A) | 0.464 | 1 | -0.0479 | -0.0628 | 0.0363 | inactive |
| UCKL1 (uridine-cytidine kinase 1 like 1) | 0.464 | 1 | -0.0479 | -0.00375 | 0.022 | inactive |
| PIK3CD | 0.464 | 1 | -0.0479 | -0.0814 | -0.056 | inactive |
| MAP3K9 (mitogen-activated protein kinase kinase kinase 9) | 0.464 | 1 | 0.102 | 0.149 | 0.13 | inactive |
| CDK6 (cyclin dependent kinase 6) | 0.464 | 1 | -0.0479 | 0.00326 | 0.111 | inactive |
| CAMK2N1 (calcium/calmodulin dependent protein kinase II inhibitor 1) | 0.464 | 1 | -0.0479 | -0.00975 | 0.0898 | inactive |
| AKAP9 (A-kinase anchoring protein 9) | 0.464 | 1 | -0.0466 | -0.0699 | -0.0839 | inactive |
| PIP5K1A (phosphatidylinositol-4-phosphate 5-kinase type 1 alpha) | -0.444 | 0.966 | -0.0805 | -0.0131 | 0.0282 | inactive |
| AURKC (aurora kinase C) | 0.464 | 1 | -0.0479 | -0.0814 | 0.0238 | inactive |
| DYRK4 (dual specificity tyrosine phosphorylation regulated kinase 4) | -3.16 | 0.863 | -0.0977 | -0.0265 | -0.0147 | active |
| DGKB (diacylglycerol kinase beta) | 0.00521 | 0.983 | 0.0068 | 0.0112 | 0.0878 | inactive |
| DGKQ (diacylglycerol kinase theta) | 0.464 | 1 | -0.0349 | -0.0156 | 0.115 | inactive |
| DGKK (diacylglycerol kinase kappa) | -0.159 | 0.976 | -0.0577 | 0.0216 | -0.00925 | inactive |
| CDC42BPB (CDC42 binding protein kinase beta) | 0.464 | 1 | 0.0188 | -0.0814 | -0.00338 | inactive |
| AK7 (adenylate kinase 7) | -1.2 | 0.937 | -0.0677 | -0.139 | -0.0275 | inactive |
| LATS2 (large tumor suppressor kinase 2) | 0.464 | 1 | -0.0479 | -0.0814 | -0.121 | inactive |
| TRIB1 (tribbles pseudokinase 1) | 0.464 | 1 | -0.0479 | -0.0514 | 0.033 | inactive |
| CPNE3 (copine 3) | 0.464 | 1 | -0.0479 | 0.00653 | 0.0192 | inactive |
| PRKAR2B | 0.464 | 1 | 0.083 | 0.113 | 0.063 | inactive |
| PLK1 (polo like kinase 1) | -9.44 | 0.625 | -0.0103 | 0.0723 | 0.0751 | active |
| MST1R (macrophage stimulating 1 receptor) | 0.464 | 1 | -0.0479 | 0.0339 | 0.00386 | inactive |
| CRIM1 (cysteine rich transmembrane BMP regulator 1) | 0.464 | 1 | 0.0261 | -0.00845 | 0.00763 | inactive |
| MAPK8 (mitogen-activated protein kinase 8) | 0.464 | 1 | -0.029 | -0.0291 | 0.126 | inactive |
| CSNK2A1 (casein kinase 2 alpha 1) | 0.464 | 1 | -0.0479 | -0.0814 | -0.109 | inactive |
| PCBP1 (poly(rC) binding protein 1) | -0.376 | 0.968 | -0.0781 | -0.07 | -0.0163 | inactive |
| TAB1 (TGF-beta activated kinase 1 (MAP3K7) binding protein 1) | 0.399 | 0.998 | -0.0502 | -0.0323 | -0.0334 | inactive |
| MPP3 (MAGUK p55 scaffold protein 3) | 0.351 | 0.996 | -0.0509 | -0.0343 | 0.0011 | inactive |
| RIOK2 (RIO kinase 2) | 0.464 | 1 | -0.0479 | -0.0814 | 0.0552 | inactive |
